Results as given in article PMC5406906.
No constants are given. Whether binding was seen depends on the method and setting. In cells and extracts the contact can be indirect. Some results given as binding are weak or reduced against the parent protein; the word gives no strength.

Chains of the proteins cited; added tags and fusions are not shown. Residues count along the entry.
UniProt Q16620, residues 32-822: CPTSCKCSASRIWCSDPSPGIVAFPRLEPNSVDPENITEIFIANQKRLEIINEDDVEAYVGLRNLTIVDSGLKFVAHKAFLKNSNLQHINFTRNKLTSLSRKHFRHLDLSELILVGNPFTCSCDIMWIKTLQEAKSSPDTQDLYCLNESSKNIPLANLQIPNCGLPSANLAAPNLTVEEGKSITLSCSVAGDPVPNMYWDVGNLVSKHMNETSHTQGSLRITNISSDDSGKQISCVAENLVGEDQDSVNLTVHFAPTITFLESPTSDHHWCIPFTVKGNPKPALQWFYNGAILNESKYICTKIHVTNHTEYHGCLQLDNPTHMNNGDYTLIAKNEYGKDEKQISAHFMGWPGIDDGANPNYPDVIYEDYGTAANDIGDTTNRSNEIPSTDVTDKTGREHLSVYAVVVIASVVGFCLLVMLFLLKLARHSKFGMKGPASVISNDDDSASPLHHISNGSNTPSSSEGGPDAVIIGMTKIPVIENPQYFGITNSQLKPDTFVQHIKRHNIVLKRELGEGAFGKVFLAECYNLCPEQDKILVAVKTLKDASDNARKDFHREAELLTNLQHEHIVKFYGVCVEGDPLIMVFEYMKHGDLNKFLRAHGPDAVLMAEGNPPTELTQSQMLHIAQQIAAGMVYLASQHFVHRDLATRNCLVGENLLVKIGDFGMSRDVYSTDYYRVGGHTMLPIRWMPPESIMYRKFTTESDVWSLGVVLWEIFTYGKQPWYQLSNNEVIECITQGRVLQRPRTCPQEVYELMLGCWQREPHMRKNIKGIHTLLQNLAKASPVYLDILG

Target: Human epidermal growth factor receptor 2 (Her2) (human (endogenous in BBM1)) (UniProt P04626)
Assay: co-IP; BBM1 cell lysate (750 ug protein) incubated overnight at 4 °C with Protein G agarose beads pre-conjugated with primary antibody (4 ug; Her2 or TrkB immunoprecipitation); IgG beads as control; washed five times with high salt, low salt, LiCl and TE buffers; western blot; cells also grown with lapatinib (50 uM) and/or cyclotraxin B (20 uM), which decreased the interaction

- binding: binds
Substance: Tropomyosin-related kinase B (TrkB) (from UniProt Q16620 32-822) (receptor)
